Drawing on PMC13221179, this text covers binding for four molecules.

Experiment in all cases: co-IP
Test [1] deals with Flag-tagged SARS-CoV-2 envelope protein E (SARS-CoV-2) (UniProt P0DTC4).
The target in test [2] is Flag-tagged E3 ubiquitin protein ligase Itchy homolog (ITCH) (human) (UniProt Q96J02).
Test [3] has as its target Flag-tagged SARS-CoV-2 membrane protein M (SARS-CoV-2) (UniProt P0DTC5).
Test [4] shares this target. The source holds these as a separate data set.

Like-named read-outs stand apart in the source and are kept apart here. No constants are given. Whether binding was seen depends on the method and setting. In cells and extracts the contact can be indirect. Some results given as binding are weak or reduced against the parent protein; the word gives no strength.

In the case of “s-tag-fused SARS-CoV-2 membrane protein M (from UniProt P0DTC5 1-222)”, the binding entry in test [1] and in test [2] was “binds” throughout. With “s-tag-fused SARS-CoV-2 envelope protein E (from UniProt P0DTC4 1-75)”, the binding entry in test [3] and in test [2] was “binds” each time. Take “RTN3, endogenous in HEK293 cells (from UniProt O95197 1-1032)”: the binding result in test [3] is “binds”.

B1: NDP52, endogenous in HEK293 cells (protein, UniProt Q13137 1-446)
chain: MEETIKDPPTSAVLLDHCHFSQVIFNSVEKFYIPGGDVTCHYTFTQHFIPRRKDWIGIFRVGWKTTREYYTFMWVTLPIDLNNKSAKQQEVQFKAYYLPKDDEYYQFCYVDEDGVVRGASIPFQFRPENEEDILVVTTQGEVEEIEQHNKELCKENQELKDSCISLQKQNSDMQAELQKKQEELETLQSINKKLELKVKEQKDYWETELLQLKEQNQKMSSENEKMGIRVDQLQAQLSTQEKEMEKLVQGDQDKTEQLEQLKKENDHLFLSLTEQRKDQKKLEQTVEQMKQNETTAMKKQQELMDENFDLSKRLSENEIICNALQRQKERLEGENDLLKRENSRLLSYMGLDFNSLPYQVPTSDEGGARQNPGLAYGNPYSGIQESSSPSPLSIKKCPICKADDICDHTLEQQQMQPLCFNCPICDKIFPATEKQIFEDHVFCHSL
Take B1: the binding entry in test [4] was “binds”.
